Data source: PubChem BioAssay AID1224830 (NIAID, 2016)

Screen: 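Host factors that control LPS-induced TNF expression in human macrophages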 (primary screen)
Cell system: human THP-1 monocytic leukaemia cells, TNF dual-luciferase reporter clone, PMA-differentiated to macrophage-like cells
Knock-down reagent: siRNA pool against human genes, 50 nM
Time to read-out: LPS for 4 h, given about 3 days after siRNA transfection
Conditions: bacterial LPS (TLR4 ligand), 10 ng/ml
Read-out: 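Ratio of firefly to renilla light, scaled to the plate median and expressed as a robust z-score per replicate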
Direction: TNF reporter robust z-score: higher = stronger TNF reporter response to LPS
Rule for the call: 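Each well counts as active if its z-score is over 2.8 or under -1.5; controls are left without a call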
Shown is an unselected part of about 18,000 deposited reagents. About 2,900 of them (16%) count as active. 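Calls are made per well; low scores hint the gene aids the LPS response, high scores that it dampens it.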 A number with no mark means an inactive call. Repeated entries: four replicate wells of each siRNA pool.

target gene	TNF reporter robust z-score
ASF1A (GeneID 25842)	-0.8
ASF1A (GeneID 25842)	-1.01
ASF1A (GeneID 25842)	-0.85
ASF1A (GeneID 25842)	0.21
PLPPR1 (GeneID 54886)	-0.27
PLPPR1 (GeneID 54886)	0.54
PLPPR1 (GeneID 54886)	-0.41
PLPPR1 (GeneID 54886)	-0.81
CT47A3 (GeneID 728082)	0.83
CT47A3 (GeneID 728082)	2.22
CT47A3 (GeneID 728082)	0.96
CT47A3 (GeneID 728082)	1.21
POLR3G (GeneID 10622)	-0.2
POLR3G (GeneID 10622)	0.12
POLR3G (GeneID 10622)	0.15
POLR3G (GeneID 10622)	0.42
FUCA1 (GeneID 2517)	-0.82
FUCA1 (GeneID 2517)	-0.6
FUCA1 (GeneID 2517)	0.28
FUCA1 (GeneID 2517)	-0.13
SARDH (GeneID 1757)	1.07
SARDH (GeneID 1757)	2.59
SARDH (GeneID 1757)	-0.11
SARDH (GeneID 1757)	0.76
SLC25A22 (GeneID 79751)	1.59
SLC25A22 (GeneID 79751)	2.71
SLC25A22 (GeneID 79751)	1.43
SLC25A22 (GeneID 79751)	1.27
MYOT (GeneID 9499)	0.59
MYOT (GeneID 9499)	0.85
MYOT (GeneID 9499)	1.49
FAM114A1 (GeneID 92689)	-0.11
FAM114A1 (GeneID 92689)	0.55
FAM114A1 (GeneID 92689)	0.39
FAM114A1 (GeneID 92689)	2.07
HS6ST3 (GeneID 266722)	-0.44
HS6ST3 (GeneID 266722)	0.06
HS6ST3 (GeneID 266722)	0.36
HS6ST3 (GeneID 266722)	0.21

Continued (10 carried over from the part before).
target gene	TNF reporter robust z-score
MYOT (GeneID 9499)	0.85
MYOT (GeneID 9499)	1.49
FAM114A1 (GeneID 92689)	-0.11
FAM114A1 (GeneID 92689)	0.55
FAM114A1 (GeneID 92689)	0.39
FAM114A1 (GeneID 92689)	2.07
HS6ST3 (GeneID 266722)	-0.44
HS6ST3 (GeneID 266722)	0.06
HS6ST3 (GeneID 266722)	0.36
HS6ST3 (GeneID 266722)	0.21
RPL9 (GeneID 6133)	2.26
RPL9 (GeneID 6133)	0.74
RPL9 (GeneID 6133)	0.5
RPL9 (GeneID 6133)	0.3
PF4V1 (GeneID 5197)	0.55
PF4V1 (GeneID 5197)	1.45
PF4V1 (GeneID 5197)	1.5
PF4V1 (GeneID 5197)	1.25
ANKZF1 (GeneID 55139)	1.22
ANKZF1 (GeneID 55139)	1.09
ANKZF1 (GeneID 55139)	1.02
ANKZF1 (GeneID 55139)	-0.55
IFITM1 (GeneID 8519)	-0.7
IFITM1 (GeneID 8519)	-0.15
IFITM1 (GeneID 8519)	-0.59
IFITM1 (GeneID 8519)	-0.83
OR1C1 (GeneID 26188)	2.23
OR1C1 (GeneID 26188)	1.42
OR1C1 (GeneID 26188)	1.36
OR1C1 (GeneID 26188)	0.99
MAB21L1 (GeneID 4081)	-1.66 (active)
MAB21L1 (GeneID 4081)	0.22
MAB21L1 (GeneID 4081)	0.09
MAB21L1 (GeneID 4081)	0.38
OR4F15 (GeneID 390649)	0.6
OR4F15 (GeneID 390649)	2.12
OR4F15 (GeneID 390649)	-1.15
OR4F15 (GeneID 390649)	-0.64
SMC4 (GeneID 10051)	-0.09
SMC4 (GeneID 10051)	0.58
SMC4 (GeneID 10051)	0.43
SMC4 (GeneID 10051)	1.48
FAM177A1 (GeneID 283635)	-0.9
FAM177A1 (GeneID 283635)	-1.06
FAM177A1 (GeneID 283635)	-0.69
FAM177A1 (GeneID 283635)	-0.62
